Measured values reported in patent publication US6177542A, “Integrin-binding peptides” (The Burnham Institute, priority 1997, dated 2001).
Entries after “also recorded” stand apart in the source; their conditions may differ. Part of at least one peptide drawing is inferred or uncertain, most often the ends. Positions of bridges follow the written chain, without caps; N, C: chain ends. Residues, ends and D or L forms follow the SMILES beside them. No end group written: not given here.

Protein sequences, listed by entry. Tags and fused reporters are not part of them. Residues count along the entry.
UniProt P08648, 895-1049 limits assumed: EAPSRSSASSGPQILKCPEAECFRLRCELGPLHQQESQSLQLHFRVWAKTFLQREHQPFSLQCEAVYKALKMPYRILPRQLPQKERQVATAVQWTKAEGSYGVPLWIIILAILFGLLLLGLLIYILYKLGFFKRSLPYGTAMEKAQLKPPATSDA
UniProt P08648, 42-894 limits assumed: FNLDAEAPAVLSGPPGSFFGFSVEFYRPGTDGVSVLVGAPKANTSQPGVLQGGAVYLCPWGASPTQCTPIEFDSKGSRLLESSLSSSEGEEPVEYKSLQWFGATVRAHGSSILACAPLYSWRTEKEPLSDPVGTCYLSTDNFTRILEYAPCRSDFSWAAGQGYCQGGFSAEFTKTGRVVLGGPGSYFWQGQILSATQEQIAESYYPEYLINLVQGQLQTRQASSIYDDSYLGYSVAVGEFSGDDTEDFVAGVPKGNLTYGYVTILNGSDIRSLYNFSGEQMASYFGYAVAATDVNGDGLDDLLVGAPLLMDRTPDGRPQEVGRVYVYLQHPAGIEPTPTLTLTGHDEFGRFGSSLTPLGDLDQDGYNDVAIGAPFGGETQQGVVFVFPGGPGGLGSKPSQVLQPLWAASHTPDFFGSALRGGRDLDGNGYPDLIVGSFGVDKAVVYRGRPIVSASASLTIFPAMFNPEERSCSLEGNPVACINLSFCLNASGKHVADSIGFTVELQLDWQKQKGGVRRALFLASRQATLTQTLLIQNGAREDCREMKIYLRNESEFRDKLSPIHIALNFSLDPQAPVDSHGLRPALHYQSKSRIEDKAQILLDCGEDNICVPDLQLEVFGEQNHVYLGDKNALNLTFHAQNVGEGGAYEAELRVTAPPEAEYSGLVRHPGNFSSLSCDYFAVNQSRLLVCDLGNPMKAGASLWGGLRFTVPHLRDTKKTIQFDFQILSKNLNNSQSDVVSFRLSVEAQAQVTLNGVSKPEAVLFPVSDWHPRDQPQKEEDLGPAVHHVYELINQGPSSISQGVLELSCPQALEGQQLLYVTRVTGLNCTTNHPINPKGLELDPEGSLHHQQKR
UniProt P05106, 27-788: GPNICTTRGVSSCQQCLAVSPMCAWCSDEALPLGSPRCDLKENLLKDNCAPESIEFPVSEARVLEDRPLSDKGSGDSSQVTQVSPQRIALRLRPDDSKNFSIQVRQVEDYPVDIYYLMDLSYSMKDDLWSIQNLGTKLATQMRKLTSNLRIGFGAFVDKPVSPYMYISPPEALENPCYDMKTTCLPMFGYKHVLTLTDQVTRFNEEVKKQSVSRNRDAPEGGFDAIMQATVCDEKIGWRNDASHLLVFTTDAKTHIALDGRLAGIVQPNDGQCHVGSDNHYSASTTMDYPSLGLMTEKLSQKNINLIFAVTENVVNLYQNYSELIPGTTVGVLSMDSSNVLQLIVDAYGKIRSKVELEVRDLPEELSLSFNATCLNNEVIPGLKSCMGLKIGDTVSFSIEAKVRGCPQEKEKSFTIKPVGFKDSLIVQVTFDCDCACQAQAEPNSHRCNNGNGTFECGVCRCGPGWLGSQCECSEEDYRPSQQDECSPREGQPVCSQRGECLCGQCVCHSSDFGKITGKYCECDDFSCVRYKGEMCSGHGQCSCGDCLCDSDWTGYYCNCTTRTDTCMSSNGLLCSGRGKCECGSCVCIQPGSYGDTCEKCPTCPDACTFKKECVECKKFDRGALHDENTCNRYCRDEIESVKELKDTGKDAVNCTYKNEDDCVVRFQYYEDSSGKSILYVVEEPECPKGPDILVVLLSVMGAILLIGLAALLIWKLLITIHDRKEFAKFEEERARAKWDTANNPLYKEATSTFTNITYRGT
UniProt P06756, 891-1048 limits assumed: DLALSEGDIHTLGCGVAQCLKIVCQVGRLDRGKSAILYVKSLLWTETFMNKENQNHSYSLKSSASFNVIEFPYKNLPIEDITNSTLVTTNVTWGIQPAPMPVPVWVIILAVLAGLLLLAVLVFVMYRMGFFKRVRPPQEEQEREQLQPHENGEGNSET
UniProt P06756, 31-889 limits assumed: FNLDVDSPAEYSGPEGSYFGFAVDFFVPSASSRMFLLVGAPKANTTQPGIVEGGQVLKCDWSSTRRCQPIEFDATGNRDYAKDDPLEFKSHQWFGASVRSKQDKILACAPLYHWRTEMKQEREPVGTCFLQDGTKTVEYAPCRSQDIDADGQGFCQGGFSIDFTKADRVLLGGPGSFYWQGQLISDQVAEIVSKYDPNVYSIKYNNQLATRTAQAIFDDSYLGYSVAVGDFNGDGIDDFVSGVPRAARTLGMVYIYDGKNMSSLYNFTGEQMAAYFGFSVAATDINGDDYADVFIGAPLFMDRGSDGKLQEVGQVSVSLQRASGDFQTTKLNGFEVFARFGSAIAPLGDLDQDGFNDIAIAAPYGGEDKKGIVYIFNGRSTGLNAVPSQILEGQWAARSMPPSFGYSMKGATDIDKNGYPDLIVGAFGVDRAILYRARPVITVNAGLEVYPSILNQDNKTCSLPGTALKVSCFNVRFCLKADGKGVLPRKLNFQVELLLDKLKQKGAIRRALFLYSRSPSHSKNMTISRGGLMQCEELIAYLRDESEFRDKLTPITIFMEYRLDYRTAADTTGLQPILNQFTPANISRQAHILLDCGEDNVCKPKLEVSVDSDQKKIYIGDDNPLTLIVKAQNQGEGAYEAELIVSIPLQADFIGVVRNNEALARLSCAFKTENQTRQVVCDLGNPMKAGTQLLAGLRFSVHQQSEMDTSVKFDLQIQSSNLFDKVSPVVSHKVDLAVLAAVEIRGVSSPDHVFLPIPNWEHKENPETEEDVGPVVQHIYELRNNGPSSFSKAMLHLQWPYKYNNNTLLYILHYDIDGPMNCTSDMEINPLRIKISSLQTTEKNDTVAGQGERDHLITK
UniProt P18084, 24-799: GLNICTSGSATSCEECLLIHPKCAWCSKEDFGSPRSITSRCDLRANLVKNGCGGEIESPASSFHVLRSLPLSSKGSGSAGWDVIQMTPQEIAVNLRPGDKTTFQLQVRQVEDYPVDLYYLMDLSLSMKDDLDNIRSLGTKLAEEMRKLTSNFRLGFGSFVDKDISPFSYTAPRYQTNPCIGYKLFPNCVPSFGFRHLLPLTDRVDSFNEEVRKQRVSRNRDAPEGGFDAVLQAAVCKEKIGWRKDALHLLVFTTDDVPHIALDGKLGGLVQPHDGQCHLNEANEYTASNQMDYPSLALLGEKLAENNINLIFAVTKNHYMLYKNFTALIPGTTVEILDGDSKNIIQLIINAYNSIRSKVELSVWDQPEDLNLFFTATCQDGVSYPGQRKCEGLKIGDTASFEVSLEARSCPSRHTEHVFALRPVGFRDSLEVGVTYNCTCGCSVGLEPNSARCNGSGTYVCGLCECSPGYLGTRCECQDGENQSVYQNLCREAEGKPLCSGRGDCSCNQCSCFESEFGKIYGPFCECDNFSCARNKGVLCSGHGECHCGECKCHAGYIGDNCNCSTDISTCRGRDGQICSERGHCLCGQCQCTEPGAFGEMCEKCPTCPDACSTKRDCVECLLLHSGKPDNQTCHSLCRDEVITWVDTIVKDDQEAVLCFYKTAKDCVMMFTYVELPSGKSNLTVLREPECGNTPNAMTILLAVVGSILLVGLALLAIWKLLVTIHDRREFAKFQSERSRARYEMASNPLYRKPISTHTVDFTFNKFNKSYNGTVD
UniProt G3HZ55, 21-798: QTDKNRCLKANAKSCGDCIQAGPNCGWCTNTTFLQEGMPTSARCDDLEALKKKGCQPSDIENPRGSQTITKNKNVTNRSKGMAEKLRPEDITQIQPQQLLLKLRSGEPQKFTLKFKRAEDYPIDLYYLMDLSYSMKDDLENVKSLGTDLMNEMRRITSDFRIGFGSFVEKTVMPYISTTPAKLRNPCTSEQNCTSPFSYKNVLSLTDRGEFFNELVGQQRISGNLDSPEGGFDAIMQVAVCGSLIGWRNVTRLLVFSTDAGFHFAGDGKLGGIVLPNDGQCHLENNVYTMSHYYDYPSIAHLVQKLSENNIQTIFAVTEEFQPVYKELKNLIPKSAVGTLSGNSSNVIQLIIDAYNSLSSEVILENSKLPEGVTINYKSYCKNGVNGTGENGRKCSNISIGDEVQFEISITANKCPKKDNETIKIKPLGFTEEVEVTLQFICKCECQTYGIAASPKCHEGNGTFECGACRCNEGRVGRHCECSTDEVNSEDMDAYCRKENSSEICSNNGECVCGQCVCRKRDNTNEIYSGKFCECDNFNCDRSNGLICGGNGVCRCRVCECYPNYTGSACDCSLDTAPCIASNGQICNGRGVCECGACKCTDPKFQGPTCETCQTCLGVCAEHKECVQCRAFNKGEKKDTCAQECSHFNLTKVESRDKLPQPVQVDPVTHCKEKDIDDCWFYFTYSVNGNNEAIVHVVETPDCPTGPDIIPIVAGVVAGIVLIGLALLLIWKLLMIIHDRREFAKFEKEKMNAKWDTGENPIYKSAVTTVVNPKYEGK

Key:
[1] = target: T1, α5β1 integrin (Homo sapiens, UniProt P05556+P08648); test: fibronectin binding assay: inhibition of 125I-labeled fibronectin binding to immobilized α5β1; details: for activity in inhibiting 125I-fibronectin binding to α5β1 (in words): FIG. 2, FIG. 3
T1 construct: The α5β1 and αvβ3 integrins were isolated from human placenta; from tissue; host or cells: human placenta
Experimental: Microtiter wells were coated with anti-α5 specific antibody by incubating overnight at an antibody concentration of 10 μg/ml, followed by BSA. α5β1 integrin then was bound to α5specific antibody-coated wells by incubating 300 μl of a placental extract per well in TBS buffer containing 0.1 M octylglucoside, 1 mM CaCl2, 1 mM MnCl2 and proteinase inhibitors overnight at 4° C. according to Pytela et al., Methods Enzymol 144: 475-489 (1987), which is herein incorporated by reference. Alternatively, the α5β1 integrin was directly coated on plastic as described above. The wells were extensively washed with TBS containing 0.1% NP-40™. ^125 I-labeled fibronectin (100,000 cpm per well) was incubated in the presence of competing peptides for 1 hour at 25° C. in 100 μl volume of TBS containing 0.1% NP-40™ detergent and 1 mM MnCl 2. After repeated washing, the radioactivity remaining bound was quantitated with a gamma counter.
Next, three of these four peptides were compared for efficiencies in inhibiting binding of ^125 I-labeled fibronectin to immobilized α5β1, according to the fibronectin binding assay described in the Example above. Anti-α5 antibodies were used to tether α5β1 onto microliter wells. ^125 I-labeled fibronectin was incubated in the coated wells in the presence of competing peptides for 1 hour. After washing, the radioactivity that remained bound was determined. The data represent means from duplicate wells.

[2] = test system: α5β1 and αvβ3 integrins; test: competitive binding assays for relative binding affinities of peptide motifs; parameters: species or system human
[3] = target: T2, αvβ3 integrin (Homo sapiens, UniProt P05106+P06756); test: binding of peptides to αvβ3 integrin bound on anti-αv or anti-β3 antibody coating
T2 construct: The α5β1 and αvβ3 integrins were isolated from human placenta; from tissue; host or cells: human placenta
Excerpt: (§1) Selected peptides were studied for their ability to bind to the αvβ3 integrin by using integrin bound on anti-αv or anti-β3 antibody coating. Microliter wells were coated with β3 antibodies to bind specifically the αvβ3 integrin. The input of CRGDCL (SEQ ID NO:01)-containing phage and NGRAHA (SEQ ID NO:04)-containing phage were 2×10^12 and 5×10^12 TU per well, respectively. The bound phage were eluted with low pH buffer and quantitated by infection of bacteria as described above. The IC50 values are means from duplicate wells. ND means not determined.

[4] = target: T3, αvβ5 (Homo sapiens, UniProt P06756+P18084); test: cell attachment assay: HT29 cells to vitronectin; assay type: cell-based; details: for inhibition of cell attachment in another experiment (in words): 'this assay' (αvβ5 taken), ALNGREESP at high concentrations 5 mM
T3 construct: endogenous in cells; host or cells: HT29
Excerpt: (§2) CHO cell lines expressing α5β1 (the B2/α27 clone, as described in Bauer et al., J. Cell. Biol. 116:477-487 (1992)), or CHO cell lines expressing αvβ1 (B2/v7 clone, described in Zhang et al., J. Cell. Biol. 122:235-242 (1993)) were used in these assays. Cell lines expressing fibronectin-binding integrins were used to determine peptide activities against these integrins in the cell attachment assay described in Ruoslahti et al. Methods Enzymol. 144:803-831 […]. The vitronectin-binding integrins αvβ5 and αvβ3 were assayed using the cell lines HT29 and IMR90, respectively, which were described in Koivunen et al. J. Biol. Chem. 268:205-210 (1993).
(§3) Human plasma fibronectin and vitronectin were iodinated as described in Morla and Ruoslahti, J. Cell Biol. 118:421-429 (1992), which is incorporated herein by reference. […] The input ell number was approximately 2×10^4 and attachment was quantitated by staining with 0.1% amido black.
Selected peptides were tested for inhibitory activity in cell attachment assays. The assays are described in detail in the Example above. The cells used in the various experiments were: (A) α5 -transfected CHO cells B2/α27 (α5β1); αv -transfectedCHO cells 32/v7 (αvβ1); (C) HT29 cells (αvβ5); (D) IMR90 cells (αvβ3). The cells were allowed to attach to microliter wells coated with fibronectin (A,B) or vitronectin (C,D) in the presence of various concentrations of the peptides, as described in the Example above. Attached cells were fixed and stained as described in the Example above. The data represent means ±S.D. from triplicate wells.

[5] = target: T1, α5β1 integrin; test: phage attachment assay: inhibition of CRGDCL-phage binding to α5β1 integrin
Experimental: (§4) The α5β1 and αvβ3 integrins were isolated from human placenta as described in Pytela et al., PNAS USA.
CRGDCL-displaying phage were incubated for 1 hour in the presence of various concentrations of the peptides to be tested in microtiter wells coated with the α5β1 integrin. […] Specific binding was quantitated by added K9lkan bacteria directly to the wells and growing the bacteria overnight at room temperature in the presence of tetracycline as described in Smith and Scott, Meth. Enzymol. […] The data represent means from duplicate wells.

[6] = target: T2, αvβ3 integrin; test: inhibition of CRGDCL-phage binding to αvβ3; details: for inhibition of CRGDCL-phage binding to αvβ3 (in words): at high concentrations (greater than 100 μM)
Excerpt: as §4
as §1, with “The input of CRGDCL (SEQ ID NO:01)-containing phage and NGRAHA (SEQ ID NO:04)-containing phage were 2×10^12 and 5×10^12 TU per well, respectively.” left out

[7] = target: T4, αvβ3 (Homo sapiens, UniProt P05106+P06756); test: cell attachment assay: IMR90 cells to vitronectin; assay type: cell-based
T4 construct: endogenous in cells; host or cells: IMR90

[8] = target: T5, αvβ1 (UniProt G3HZ55+P06756); test: cell attachment assay: αv-transfected CHO cells B2/v7 to fibronectin; assay type: cell-based
T5 construct: expressed in transfected cells; host or cells: CHO B2/v7 clone

[9] = target: T6, α5β1 (UniProt G3HZ55+P08648); test: cell attachment assay: α5-transfected CHO cells B2/α27 to fibronectin; assay type: cell-based
T6 construct: expressed in transfected cells; host or cells: CHO B2/α27 clone
Excerpt: as §2, §3
Selected peptides were tested for inhibitory activity in cell attachment assays. The assays are described in detail in the Example above. The cells used in the various experiments were: (A) α5 -transfected CHO cells B2/α27 (α5β1); αv -transfectedCHO cells 32/v7 (αvβ1); (C) HT29 cells (αvβ5); (D) IMR90 cells (αvβ3). […]

DGRAHA [DGRAHA]
activity in inhibiting 125I-fibronectin binding to α5β1 (in words) [1]: equally active as NGRAHA
relative binding affinity class (in words) [2]: moderate affinities

PKRGDL [PKRGDL]
binding to αvβ3 (in words) [3]: bound

ALNGREESP
inhibition of cell attachment in another experiment (in words) [4]: only weakly inhibitory
activity in inhibiting 125I-fibronectin binding to α5β1 (in words) [1]: active, but less so than NGRAHA

GATIRSVDGA
inhibition of CRGDCL-phage binding to α5β1 (in words) ([5]; phage attachment assay): essentially inactive
inhibition of CRGDCL-phage binding to αvβ3 (in words) [6]: weakly inhibitory

GRAHA [GRAHA]
inhibition of cell attachment in another experiment (in words) [4]: devoid of activity
activity in inhibiting 125I-fibronectin binding to α5β1 (in words) [1]: completely inactive

NGRAHA [NGRAHA]
inhibition of αvβ3-mediated cell attachment (in words) ([7]; IMR90, vitronectin): could also block cell attachment
binding to αvβ3 (in words) [3]: bound
inhibition of αvβ5-mediated cell attachment (in words) ([4]; HT29, vitronectin): could also block cell attachment; also recorded: inhibited most efficiently
inhibition of αvβ1-mediated cell attachment (in words) ([8]; CHO B2/v7, fibronectin): could also block cell attachment
inhibition of α5β1-mediated cell attachment to fibronectin (in words) ([9]; at a concentration of 2.5 mM): partially inhibit
relative binding affinity class (in words) [2]: moderate affinities
inhibition of CRGDCL-phage binding to αvβ3 (in words) [6]: weakly inhibitory

CC(C)C[C@H](NC(=O)[C@@H]1CSSC[C@H](NC(=O)[C@H](C)NC(=O)CN)C(=O)N[C@@H](CCCNC(=N)N)C(=O)NCC(=O)N[C@@H](CC(=O)O)C(=O)N1)C(=O)NCC(=O)N[C@@H](C)C(=O)O [GAC*RGDC*LGA] (H-GACRGDCLGA-OH; disulfide 3-7)
activity difference between GACRGDCLGA and GRGDSP, cell attachment mediated by αvβ3 ([7]; FIG. 4D): ~10 fold
activity difference between GACRGDCLGA and GRGDSP, cell attachment mediated by αvβ5 ([4]; FIG. 4C): ~10 fold
activity difference between GACRGDCLGA and GRGDSP, cell attachment mediated by αvβ1 ([8]; FIG. 4B): ~10 fold
inhibition of α5β1-mediated cell attachment to fibronectin relative to linear GRGDSP ([9]; FIG. 4A): ~10 fold
potency relative to the linear GRGDSP ([5]; by IC50 values, CRGDCL-phage, α5β1): about 10 times
difference in activities of the cyclic peptide and linear GRGDSP ([1]; FIG. 2, 125I-fibronectin binding to α5β1): 10 fold
decrease of activity caused by reduction and alkylation of the disulfide bond ([1]; another experiment, reduced and alkylated (linearized) peptide vs cyclic): 10 fold
inhibition of CRGDCL-phage attachment relative to the peptide GRGDSP ([6]; αvβ3): 10 fold
